PMC7977470
Where two headings read alike, the source gives them in different places. Results are given in words; binding and its absence hold for the method and conditions named. In cells and extracts the contact can be indirect. Some results given as binding are weak or reduced against the parent protein; the word gives no strength. One block for each molecule: values may come before it.

By UniProt entry, the sequences of proteins in these tests, tags left out.
UniProt P02340: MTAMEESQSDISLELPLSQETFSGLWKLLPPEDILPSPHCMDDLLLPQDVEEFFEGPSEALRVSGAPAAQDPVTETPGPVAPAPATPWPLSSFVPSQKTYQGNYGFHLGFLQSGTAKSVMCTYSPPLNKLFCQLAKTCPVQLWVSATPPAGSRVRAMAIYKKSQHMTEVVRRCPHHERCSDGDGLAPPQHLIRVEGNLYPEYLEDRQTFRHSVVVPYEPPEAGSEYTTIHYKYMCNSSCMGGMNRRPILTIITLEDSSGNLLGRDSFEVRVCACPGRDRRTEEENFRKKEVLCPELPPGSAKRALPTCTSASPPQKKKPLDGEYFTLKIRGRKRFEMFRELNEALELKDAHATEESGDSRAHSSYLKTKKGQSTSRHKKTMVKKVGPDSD
UniProt Q8BUN5: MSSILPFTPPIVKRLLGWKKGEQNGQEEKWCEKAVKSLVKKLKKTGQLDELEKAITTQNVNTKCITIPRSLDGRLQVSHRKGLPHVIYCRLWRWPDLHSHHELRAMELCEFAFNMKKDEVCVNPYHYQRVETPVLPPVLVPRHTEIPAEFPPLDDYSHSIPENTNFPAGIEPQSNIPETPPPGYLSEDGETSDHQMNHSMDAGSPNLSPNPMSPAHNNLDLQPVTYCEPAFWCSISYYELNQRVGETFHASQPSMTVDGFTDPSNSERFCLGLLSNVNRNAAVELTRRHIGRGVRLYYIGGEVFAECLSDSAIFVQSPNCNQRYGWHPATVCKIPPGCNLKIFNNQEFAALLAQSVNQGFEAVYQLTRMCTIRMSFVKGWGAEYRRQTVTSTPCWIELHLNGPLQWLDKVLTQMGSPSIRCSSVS
UniProt Q9NQB0: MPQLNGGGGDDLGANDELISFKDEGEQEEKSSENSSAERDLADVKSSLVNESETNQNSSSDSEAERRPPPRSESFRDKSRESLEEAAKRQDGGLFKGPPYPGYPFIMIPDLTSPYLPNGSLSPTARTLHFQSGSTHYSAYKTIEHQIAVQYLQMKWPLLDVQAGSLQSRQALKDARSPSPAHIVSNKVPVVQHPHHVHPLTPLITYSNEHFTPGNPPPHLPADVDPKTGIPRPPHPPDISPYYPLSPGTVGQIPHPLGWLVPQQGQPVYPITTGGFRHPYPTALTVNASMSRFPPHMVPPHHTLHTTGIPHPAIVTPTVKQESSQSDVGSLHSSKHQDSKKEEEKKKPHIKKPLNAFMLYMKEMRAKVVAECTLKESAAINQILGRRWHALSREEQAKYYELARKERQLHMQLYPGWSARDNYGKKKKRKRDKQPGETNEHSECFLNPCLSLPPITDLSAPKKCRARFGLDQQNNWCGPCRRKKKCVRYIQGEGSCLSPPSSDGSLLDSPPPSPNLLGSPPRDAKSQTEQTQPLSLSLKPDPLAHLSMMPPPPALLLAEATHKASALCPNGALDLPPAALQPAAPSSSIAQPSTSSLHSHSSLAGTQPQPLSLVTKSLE

Key:
[1] = target: T1, plakoglobin (human) (human (endogenous in HCAECs)) (UniProt P14923); experiment: co-IP; HCAEC lysates in RIPA buffer with protease inhibitors and 20 mM N-ethylmaleimide; antibody (anti-KLK8, anti-p53 or anti-plakoglobin) 16 h at 4 °C, protein A and G sepharose beads 3 h, four washes; Western blot; IgG as control; cells untreated or treated with Ad-KLK8 (72 h), high glucose (25 mM), KLK8 siRNA or plakoglobin siRNA
T1 sequence: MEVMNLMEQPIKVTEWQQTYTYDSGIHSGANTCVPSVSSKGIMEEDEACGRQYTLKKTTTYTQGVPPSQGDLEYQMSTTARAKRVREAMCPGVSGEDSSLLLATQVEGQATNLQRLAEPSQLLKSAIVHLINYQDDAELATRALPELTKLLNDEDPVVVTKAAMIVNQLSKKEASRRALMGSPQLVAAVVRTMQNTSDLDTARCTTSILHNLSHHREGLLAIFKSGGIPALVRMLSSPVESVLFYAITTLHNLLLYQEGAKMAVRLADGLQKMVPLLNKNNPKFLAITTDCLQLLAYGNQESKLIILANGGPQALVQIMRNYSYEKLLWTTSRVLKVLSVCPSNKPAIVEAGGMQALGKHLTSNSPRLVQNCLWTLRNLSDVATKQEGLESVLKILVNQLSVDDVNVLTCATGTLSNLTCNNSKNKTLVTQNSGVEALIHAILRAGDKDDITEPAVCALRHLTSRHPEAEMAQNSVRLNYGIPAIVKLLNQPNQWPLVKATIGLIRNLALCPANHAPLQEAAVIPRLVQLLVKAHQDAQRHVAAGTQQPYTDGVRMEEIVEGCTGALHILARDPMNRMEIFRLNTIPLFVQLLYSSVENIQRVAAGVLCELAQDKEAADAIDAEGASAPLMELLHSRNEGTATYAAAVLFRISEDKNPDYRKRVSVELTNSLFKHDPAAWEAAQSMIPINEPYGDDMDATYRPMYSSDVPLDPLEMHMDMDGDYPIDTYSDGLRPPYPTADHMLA

[2] = target: p53 (mouse) (mouse (endogenous in mouse heart)) (UniProt P02340); experiment: co-IP; heart tissue of KLK8+/+ and KLK8-/- mice, control or after 24 weeks of streptozotocin-induced diabetes, lysed in RIPA buffer with protease inhibitors and 20 mM N-ethylmaleimide; antibody 16 h at 4 °C, protein A and G sepharose beads; Western blot
[3] = target: T2, kallikrein-related peptidase 8 (KLK8) in rat myocardium (not stated (in rat myocardium; species of the KLK8 transgene not told)) (UniProt O88780); experiment: co-IP; rat myocardium lysed in RIPA buffer with protease inhibitors and 20 mM N-ethylmaleimide; antibody (anti-KLK8 or anti-plakoglobin) 16 h at 4 °C, protein A and G sepharose beads 3 h, four washes; Western blot; IgG as control
T2 sequence: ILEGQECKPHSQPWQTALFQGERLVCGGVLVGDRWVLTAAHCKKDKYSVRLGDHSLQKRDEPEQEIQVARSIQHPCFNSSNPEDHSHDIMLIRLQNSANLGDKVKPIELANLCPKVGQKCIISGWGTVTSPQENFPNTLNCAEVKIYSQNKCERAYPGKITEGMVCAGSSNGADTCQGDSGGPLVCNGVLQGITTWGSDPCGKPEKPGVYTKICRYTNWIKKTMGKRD

[4] = target: T3, plakoglobin (rat) (rat (endogenous in rat myocardium)) (UniProt Q6P0K8); experiment: as above
T3 sequence: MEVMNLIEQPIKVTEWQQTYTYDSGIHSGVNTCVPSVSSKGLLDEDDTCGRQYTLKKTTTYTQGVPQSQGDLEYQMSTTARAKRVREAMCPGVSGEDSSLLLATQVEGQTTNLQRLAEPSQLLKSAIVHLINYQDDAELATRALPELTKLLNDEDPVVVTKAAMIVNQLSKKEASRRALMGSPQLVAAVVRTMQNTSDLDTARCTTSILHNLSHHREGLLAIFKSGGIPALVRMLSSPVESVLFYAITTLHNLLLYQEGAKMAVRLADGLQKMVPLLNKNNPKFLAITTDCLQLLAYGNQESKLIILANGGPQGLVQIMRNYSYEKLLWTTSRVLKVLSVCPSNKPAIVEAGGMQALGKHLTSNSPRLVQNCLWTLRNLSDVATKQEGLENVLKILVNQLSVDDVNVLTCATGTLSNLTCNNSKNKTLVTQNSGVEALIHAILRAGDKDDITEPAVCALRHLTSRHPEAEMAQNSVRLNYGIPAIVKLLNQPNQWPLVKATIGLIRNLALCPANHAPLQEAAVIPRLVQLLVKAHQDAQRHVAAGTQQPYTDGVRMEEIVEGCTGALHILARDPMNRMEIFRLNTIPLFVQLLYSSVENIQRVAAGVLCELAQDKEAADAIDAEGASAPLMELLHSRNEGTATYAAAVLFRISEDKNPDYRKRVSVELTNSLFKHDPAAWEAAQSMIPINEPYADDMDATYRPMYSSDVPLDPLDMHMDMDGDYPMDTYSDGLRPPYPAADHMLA

[5] = target: T4, kallikrein-related peptidase 8 (KLK8) in human coronary artery endothelial cells (human (endogenous in HCAECs)) (UniProt O60259); experiment: co-IP; HCAEC lysates in RIPA buffer with protease inhibitors and 20 mM N-ethylmaleimide; antibody (anti-KLK8, anti-p53 or anti-plakoglobin) 16 h at 4 °C, protein A and G sepharose beads 3 h, four washes; Western blot; IgG as control; cells untreated or treated with Ad-KLK8 (72 h), high glucose (25 mM), KLK8 siRNA or plakoglobin siRNA
T4 sequence: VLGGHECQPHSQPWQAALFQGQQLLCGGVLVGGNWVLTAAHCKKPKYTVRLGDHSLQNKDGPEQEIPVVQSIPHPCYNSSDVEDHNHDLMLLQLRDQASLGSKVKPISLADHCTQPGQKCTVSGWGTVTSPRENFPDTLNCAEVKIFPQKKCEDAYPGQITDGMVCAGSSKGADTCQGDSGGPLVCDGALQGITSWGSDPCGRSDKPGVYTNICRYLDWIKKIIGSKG

[6] = target: T1, plakoglobin (human) (human (endogenous in HCAECs)); experiment: as above; remark: listed apart in the source

Molecule: Smad3 (mouse) (from UniProt Q8BUN5 1-425)
- binding [2]: binds

B1: plakoglobin (rat) (protein, UniProt Q6P0K8 1-745)
chain: MEVMNLIEQPIKVTEWQQTYTYDSGIHSGVNTCVPSVSSKGLLDEDDTCGRQYTLKKTTTYTQGVPQSQGDLEYQMSTTARAKRVREAMCPGVSGEDSSLLLATQVEGQTTNLQRLAEPSQLLKSAIVHLINYQDDAELATRALPELTKLLNDEDPVVVTKAAMIVNQLSKKEASRRALMGSPQLVAAVVRTMQNTSDLDTARCTTSILHNLSHHREGLLAIFKSGGIPALVRMLSSPVESVLFYAITTLHNLLLYQEGAKMAVRLADGLQKMVPLLNKNNPKFLAITTDCLQLLAYGNQESKLIILANGGPQGLVQIMRNYSYEKLLWTTSRVLKVLSVCPSNKPAIVEAGGMQALGKHLTSNSPRLVQNCLWTLRNLSDVATKQEGLENVLKILVNQLSVDDVNVLTCATGTLSNLTCNNSKNKTLVTQNSGVEALIHAILRAGDKDDITEPAVCALRHLTSRHPEAEMAQNSVRLNYGIPAIVKLLNQPNQWPLVKATIGLIRNLALCPANHAPLQEAAVIPRLVQLLVKAHQDAQRHVAAGTQQPYTDGVRMEEIVEGCTGALHILARDPMNRMEIFRLNTIPLFVQLLYSSVENIQRVAAGVLCELAQDKEAADAIDAEGASAPLMELLHSRNEGTATYAAAVLFRISEDKNPDYRKRVSVELTNSLFKHDPAAWEAAQSMIPINEPYADDMDATYRPMYSSDVPLDPLDMHMDMDGDYPMDTYSDGLRPPYPAADHMLA
- binding [3]: binds

B2: kallikrein-related peptidase 8 (KLK8) in rat myocardium (enzyme, UniProt O88780 33-260)
chain: ILEGQECKPHSQPWQTALFQGERLVCGGVLVGDRWVLTAAHCKKDKYSVRLGDHSLQKRDEPEQEIQVARSIQHPCFNSSNPEDHSHDIMLIRLQNSANLGDKVKPIELANLCPKVGQKCIISGWGTVTSPQENFPNTLNCAEVKIYSQNKCERAYPGKITEGMVCAGSSNGADTCQGDSGGPLVCNGVLQGITTWGSDPCGKPEKPGVYTKICRYTNWIKKTMGKRD
- binding [4]: binds

B3: plakoglobin (human) (protein, UniProt P14923 1-745)
chain: MEVMNLMEQPIKVTEWQQTYTYDSGIHSGANTCVPSVSSKGIMEEDEACGRQYTLKKTTTYTQGVPPSQGDLEYQMSTTARAKRVREAMCPGVSGEDSSLLLATQVEGQATNLQRLAEPSQLLKSAIVHLINYQDDAELATRALPELTKLLNDEDPVVVTKAAMIVNQLSKKEASRRALMGSPQLVAAVVRTMQNTSDLDTARCTTSILHNLSHHREGLLAIFKSGGIPALVRMLSSPVESVLFYAITTLHNLLLYQEGAKMAVRLADGLQKMVPLLNKNNPKFLAITTDCLQLLAYGNQESKLIILANGGPQALVQIMRNYSYEKLLWTTSRVLKVLSVCPSNKPAIVEAGGMQALGKHLTSNSPRLVQNCLWTLRNLSDVATKQEGLESVLKILVNQLSVDDVNVLTCATGTLSNLTCNNSKNKTLVTQNSGVEALIHAILRAGDKDDITEPAVCALRHLTSRHPEAEMAQNSVRLNYGIPAIVKLLNQPNQWPLVKATIGLIRNLALCPANHAPLQEAAVIPRLVQLLVKAHQDAQRHVAAGTQQPYTDGVRMEEIVEGCTGALHILARDPMNRMEIFRLNTIPLFVQLLYSSVENIQRVAAGVLCELAQDKEAADAIDAEGASAPLMELLHSRNEGTATYAAAVLFRISEDKNPDYRKRVSVELTNSLFKHDPAAWEAAQSMIPINEPYGDDMDATYRPMYSSDVPLDPLEMHMDMDGDYPIDTYSDGLRPPYPTADHMLA
- binding [5]: binds

Continued, values first:

- binding [1]: binds
Molecule: TCF-4 (human) (from UniProt Q9NQB0 1-619)

- binding [6]: binds
B4: kallikrein-related peptidase 8 (KLK8) in human coronary artery endothelial cells (enzyme, UniProt O60259 33-260)
chain: VLGGHECQPHSQPWQAALFQGQQLLCGGVLVGGNWVLTAAHCKKPKYTVRLGDHSLQNKDGPEQEIPVVQSIPHPCYNSSDVEDHNHDLMLLQLRDQASLGSKVKPISLADHCTQPGQKCTVSGWGTVTSPRENFPDTLNCAEVKIFPQKKCEDAYPGQITDGMVCAGSSKGADTCQGDSGGPLVCDGALQGITSWGSDPCGRSDKPGVYTNICRYLDWIKKIIGSKG

- binding [5]: binds
B5: vascular endothelial (VE)-cadherin (human) (protein, UniProt P33151 48-784)
chain: DWIWNQMHIDEEKNTSLPHHVGKIKSSVSRKNAKYLLKGEYVGKVFRVDAETGDVFAIERLDRENISEYHLTAVIVDKDTGENLETPSSFTIKVHDVNDNWPVFTHRLFNASVPESSAVGTSVISVTAVDADDPTVGDHASVMYQILKGKEYFAIDNSGRIITITKSLDREKQARYEIVVEARDAQGLRGDSGTATVLVTLQDINDNFPFFTQTKYTFVVPEDTRVGTSVGSLFVEDPDEPQNRMTKYSILRGDYQDAFTIETNPAHNEGIIKPMKPLDYEYIQQYSFIVEATDPTIDLRYMSPPAGNRAQVIINITDVDEPPIFQQPFYHFQLKENQKKPLIGTVLAMDPDAARHSIGYSIRRTSDKGQFFRVTKKGDIYNEKELDREVYPWYNLTVEAKELDSTGTPTGKESIVQVHIEVLDENDNAPEFAKPYQPKVCENAVHGQLVLQISAIDKDITPRNVKFKFILNTENNFTLTDNHDNTANITVKYGQFDREHTKVHFLPVVISDNGMPSRTGTSTLTVAVCKCNEQGEFTFCEDMAAQVGVSIQAVVAILLCILTITVITLLIFLRRRLRKQARAHGKSVPEIHEQLVTYDEEGGGEMDTTSYDVSVLNSVRRGGAKPPRPALDARPSLYAQVQKPPRHAPGAHGGPGEMAAMIEVKKDEADHDGDGPPYDTLHIYGYEGSESIAESLSSLGTDSSDSDVDYDFLNDWGPRFKMLAELYGSDPREELLY
